# Experimental data published in US20120315276A1.
# These are yes or no findings as the source states them, for the method shown. Some entries that bind do so weakly or less than the wild type.
# T1: Human prolactin receptor (PRLR) on cells (T47D; HEK293 or Ba/F cells stably transfected with human PRLR) (human) (UniProt P16471)
# T1 sequence (looked up): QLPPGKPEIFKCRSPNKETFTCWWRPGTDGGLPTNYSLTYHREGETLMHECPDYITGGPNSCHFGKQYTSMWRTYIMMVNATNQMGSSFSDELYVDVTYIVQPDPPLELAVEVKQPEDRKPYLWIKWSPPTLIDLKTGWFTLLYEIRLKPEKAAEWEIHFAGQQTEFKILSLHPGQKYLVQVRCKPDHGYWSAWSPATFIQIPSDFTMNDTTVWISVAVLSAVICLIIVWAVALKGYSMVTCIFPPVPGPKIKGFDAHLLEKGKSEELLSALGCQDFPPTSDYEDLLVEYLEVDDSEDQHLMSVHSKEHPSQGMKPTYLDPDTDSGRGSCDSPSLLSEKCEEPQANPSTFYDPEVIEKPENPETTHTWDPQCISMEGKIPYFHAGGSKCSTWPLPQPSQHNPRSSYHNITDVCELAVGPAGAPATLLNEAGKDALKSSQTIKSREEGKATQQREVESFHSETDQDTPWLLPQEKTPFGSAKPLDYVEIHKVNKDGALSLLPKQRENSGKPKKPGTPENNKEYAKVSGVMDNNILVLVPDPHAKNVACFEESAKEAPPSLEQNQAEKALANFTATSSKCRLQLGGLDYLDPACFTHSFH
# T2: Murine prolactin receptor (PRLR) on cells (HEK293 or Ba/F cells stably transfected with murine PRLR) (mouse) (UniProt Q08501)
# T2 sequence (looked up): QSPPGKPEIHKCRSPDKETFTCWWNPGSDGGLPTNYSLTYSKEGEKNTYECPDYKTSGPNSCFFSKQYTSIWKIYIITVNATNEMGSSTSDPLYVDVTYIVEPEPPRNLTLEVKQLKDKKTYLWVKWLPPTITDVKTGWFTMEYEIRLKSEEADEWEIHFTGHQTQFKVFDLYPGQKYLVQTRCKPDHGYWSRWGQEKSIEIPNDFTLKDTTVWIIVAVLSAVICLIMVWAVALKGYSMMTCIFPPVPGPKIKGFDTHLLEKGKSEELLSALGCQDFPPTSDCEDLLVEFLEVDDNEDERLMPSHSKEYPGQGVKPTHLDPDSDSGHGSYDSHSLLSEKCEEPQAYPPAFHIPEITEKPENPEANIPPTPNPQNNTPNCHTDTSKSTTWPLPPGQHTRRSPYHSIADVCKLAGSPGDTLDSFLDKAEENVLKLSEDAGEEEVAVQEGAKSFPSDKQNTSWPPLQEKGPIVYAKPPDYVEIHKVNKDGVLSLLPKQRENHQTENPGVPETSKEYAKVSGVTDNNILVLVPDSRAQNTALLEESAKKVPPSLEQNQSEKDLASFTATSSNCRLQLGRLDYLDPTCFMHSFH
# T3: Rat prolactin receptor (PRLR) on rat lymphoma cell line Nb2 (rat) (UniProt P05710)
# T3 sequence (looked up): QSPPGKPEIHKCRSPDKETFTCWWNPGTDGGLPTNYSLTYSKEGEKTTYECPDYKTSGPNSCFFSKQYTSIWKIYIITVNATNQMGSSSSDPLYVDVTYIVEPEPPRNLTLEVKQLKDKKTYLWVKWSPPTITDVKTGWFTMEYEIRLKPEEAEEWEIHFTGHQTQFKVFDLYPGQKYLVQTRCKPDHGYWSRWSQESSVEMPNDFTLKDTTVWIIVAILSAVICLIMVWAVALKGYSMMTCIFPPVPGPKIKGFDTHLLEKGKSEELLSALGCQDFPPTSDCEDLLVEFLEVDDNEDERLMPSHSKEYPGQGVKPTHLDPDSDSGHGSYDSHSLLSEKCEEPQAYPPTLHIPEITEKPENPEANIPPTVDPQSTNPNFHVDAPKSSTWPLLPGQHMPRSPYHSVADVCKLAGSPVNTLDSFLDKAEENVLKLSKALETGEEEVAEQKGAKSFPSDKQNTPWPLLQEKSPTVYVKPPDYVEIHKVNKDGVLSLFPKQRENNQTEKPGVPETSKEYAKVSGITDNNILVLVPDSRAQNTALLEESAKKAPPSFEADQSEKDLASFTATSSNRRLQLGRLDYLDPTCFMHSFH
# B1: 001-E06 (human IgG1) (antibody, V domains shown)
# VH: QVELLESGGGLVQPGGSLRLSCAASGFTFSSYWMSWVRQAPGKGLEWVSSVSDTGTDTHYADSVKGRFTISRDNSKNTLYLQMNSLRAEDTAVYYCAKTPLAYSSGWYYFDYWGQGTLVTVSS
# VL: DIVLTQPPSASGTPGQRVTISCSGSSSNIGSNTVNWYQQLPGTAPKLLIYRNYQRPSGVPDRFSGSKSGTSASLAISGLRSEDEADYYCQSYDSSLSGSVFGGGTKLTVLG
# B2: XHA06.642 (Novartis, WO2008/22295; IgG1) (antibody, V domains shown)
# VH: EVQLVESGGDLVKPGGSLKLSCAVSGFTFSSYGMSWVRQTPDKRLEWVATVSSGGTYTYYPDSVKGRFTISRDNAKNTLYLQMSSLKSEDSAMYYCARHRGNYYATYYYAMDYWGQGTSVTVSS
# VL: DIVLTQSPASLAVSLGQGATISCRASKSVSTSGYTYMHWYQQKPGQPPKLLIYLASNLESGVPARFSGSGSGTDFTLNIHPVEEEDAATYYCQHSGELPPSFGGGTKLEIKR
# Legend:
# [1] = target: T1, Human prolactin receptor (PRLR) on cells (T47D; HEK293 or Ba/F cells stably transfected with human PRLR) (human); test: FACS on HEK293 cells stably expressing human PRLR, single antibody concentration 0.37 µg/ml, PE-conjugated goat anti-human IgG detection, compared with parental HEK293 cells
# [2] = target: T1, Human prolactin receptor (PRLR) on cells (T47D; HEK293 or Ba/F cells stably transfected with human PRLR) (human); test: Flow cytometry at a fixed concentration on HEK293 cells stably expressing human PRLR
# [3] = target: T2, Murine prolactin receptor (PRLR) on cells (HEK293 or Ba/F cells stably transfected with murine PRLR) (mouse); test: FACS on HEK293 cells stably expressing murine PRLR, single antibody concentration 0.37 µg/ml, PE-conjugated goat anti-human IgG detection, compared with parental HEK293 cells
# [4] = target: T2, Murine prolactin receptor (PRLR) on cells (HEK293 or Ba/F cells stably transfected with murine PRLR) (mouse); test: Flow cytometry at a fixed concentration on HEK293 cells stably expressing murine PRLR
# [5] = target: T3, Rat prolactin receptor (PRLR) on rat lymphoma cell line Nb2 (rat); test: Statement in Example 6 (Nb2-11 rat lymphoma cells)
Binder,binding [1],binding [2],binding [3],binding [4],binding [5]
B1,binds,binds,binds,binds,–
B2,–,–,–,–,binds
